Measurements taken from US5342839A, “2-hydroxy-3-phenoxy-propyl-substituted piperazines, their preparation and use” (BASF Aktiengesellschaft, priority 1988, dated 1994).

Amino acid sequences for entries named in this document (tags omitted). Residues count along the entry.
UniProt A0A286X7I0, 1-1867: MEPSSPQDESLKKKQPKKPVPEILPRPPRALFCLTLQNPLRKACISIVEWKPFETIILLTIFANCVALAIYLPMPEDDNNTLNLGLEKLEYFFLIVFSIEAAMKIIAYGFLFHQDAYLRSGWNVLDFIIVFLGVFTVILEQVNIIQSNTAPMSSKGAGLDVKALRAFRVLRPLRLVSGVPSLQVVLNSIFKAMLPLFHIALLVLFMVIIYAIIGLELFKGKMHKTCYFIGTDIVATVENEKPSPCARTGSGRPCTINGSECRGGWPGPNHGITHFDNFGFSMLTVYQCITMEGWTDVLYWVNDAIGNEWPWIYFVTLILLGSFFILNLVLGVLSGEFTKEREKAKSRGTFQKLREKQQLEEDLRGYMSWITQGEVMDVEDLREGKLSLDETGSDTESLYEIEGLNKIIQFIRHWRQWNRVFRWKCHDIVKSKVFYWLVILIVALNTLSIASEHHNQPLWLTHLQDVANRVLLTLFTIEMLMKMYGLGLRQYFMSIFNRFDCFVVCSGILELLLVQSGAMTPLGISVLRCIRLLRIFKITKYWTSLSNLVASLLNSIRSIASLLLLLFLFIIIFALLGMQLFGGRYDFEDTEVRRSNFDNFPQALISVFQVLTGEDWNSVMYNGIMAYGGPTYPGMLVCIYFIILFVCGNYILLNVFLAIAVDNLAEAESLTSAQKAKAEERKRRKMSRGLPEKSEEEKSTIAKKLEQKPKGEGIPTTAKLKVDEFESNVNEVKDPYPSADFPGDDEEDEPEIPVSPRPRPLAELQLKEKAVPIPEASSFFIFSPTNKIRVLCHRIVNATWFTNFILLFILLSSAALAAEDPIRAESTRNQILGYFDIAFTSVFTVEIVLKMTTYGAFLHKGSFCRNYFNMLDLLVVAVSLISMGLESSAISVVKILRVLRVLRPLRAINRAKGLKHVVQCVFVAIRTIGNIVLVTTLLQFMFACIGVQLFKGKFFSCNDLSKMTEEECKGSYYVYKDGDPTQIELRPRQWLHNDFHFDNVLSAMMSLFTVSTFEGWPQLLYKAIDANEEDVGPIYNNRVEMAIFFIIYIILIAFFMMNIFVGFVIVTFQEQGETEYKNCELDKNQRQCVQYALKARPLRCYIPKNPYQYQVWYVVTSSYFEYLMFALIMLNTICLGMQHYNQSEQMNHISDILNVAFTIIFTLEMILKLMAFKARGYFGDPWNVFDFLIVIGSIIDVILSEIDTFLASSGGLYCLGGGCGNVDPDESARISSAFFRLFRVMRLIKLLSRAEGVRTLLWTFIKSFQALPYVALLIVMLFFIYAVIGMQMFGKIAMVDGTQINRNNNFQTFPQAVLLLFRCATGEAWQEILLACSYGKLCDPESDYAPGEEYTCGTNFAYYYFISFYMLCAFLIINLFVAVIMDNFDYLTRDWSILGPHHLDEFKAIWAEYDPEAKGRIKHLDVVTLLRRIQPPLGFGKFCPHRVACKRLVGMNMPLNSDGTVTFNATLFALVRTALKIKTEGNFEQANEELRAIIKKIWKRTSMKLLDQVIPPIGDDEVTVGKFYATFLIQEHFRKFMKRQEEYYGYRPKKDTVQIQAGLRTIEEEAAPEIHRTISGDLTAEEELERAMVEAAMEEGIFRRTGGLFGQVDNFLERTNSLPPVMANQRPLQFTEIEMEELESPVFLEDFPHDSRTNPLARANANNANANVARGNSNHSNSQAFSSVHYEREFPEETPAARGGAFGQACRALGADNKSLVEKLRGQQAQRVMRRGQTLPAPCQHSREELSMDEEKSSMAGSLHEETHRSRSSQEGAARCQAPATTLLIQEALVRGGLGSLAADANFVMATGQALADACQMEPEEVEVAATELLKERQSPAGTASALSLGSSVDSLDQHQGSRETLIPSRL

Molecular target: T1, calcium channel (Cavia porcellus, UniProt A0A286X7I0)
T1 construct: guinea-pig skeletal muscle membranes; from tissue; host or cells: guinea-pig skeletal muscle membranes
Assay: Affinity to the calcium channel: inhibition of specific (S)-3H-devapamil binding to guinea-pig skeletal muscle membranes
Conditions: 1 nM (S)-3H-devapamil, pH 7.4, 20° C., 60 minutes, read-out: Test 3 Ki
Experimental: 3. Affinity of the test substances to the calcium channel.
The affinity of the test substances to the calcium channel was determined by inhibition of the specific (S)-^3 H-devapamil binding to guinea-pig skeletal muscle membranes (FEBS Lett. 176, 371 (1984)). For this, the membranes were incubated with a fixed concentration of 1 nM (S)-^3 H-devapamil and increasing concentrations of test substance in 50 mM tris-HCl/0.1 mM phenylmethylsulfonyl fluoride, (pH 7.4) at 20° C. for 60 minutes. The non-specific binding was determined using 10^-6 M (S)-devapamil. The mixtures were then filtered through glass fiber filters, and the amount of (S)-^3 H-devapamil retained on the filter was determined by liquid scintillation measurement. The Ki values were determined by non-linear regression analysis.

Fc1ccc(C(c2ccc(F)cc2)N2CCN(C/C=C/c3ccccc3)CC2)cc1 [flunarizine, reference compound]
Ki: 0.288 µM
